According to PMC9484696:
Results are given in words; binding and its absence hold for the method and conditions named. In cells and extracts the contact can be indirect. A yes stands for co-enrichment or nearness to the bait. Other partners may have been found. For some assays here: Sequences can lack the tags named with a protein.

By UniProt entry, the sequences of proteins in these tests, tags left out. Residues count along the entry.
UniProt P42081, residues 24-247: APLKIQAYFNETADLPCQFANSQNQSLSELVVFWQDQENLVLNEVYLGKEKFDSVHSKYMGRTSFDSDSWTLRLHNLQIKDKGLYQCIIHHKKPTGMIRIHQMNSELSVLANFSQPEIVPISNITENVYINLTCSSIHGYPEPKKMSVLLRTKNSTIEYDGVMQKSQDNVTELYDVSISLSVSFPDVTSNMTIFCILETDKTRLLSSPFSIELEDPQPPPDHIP
UniProt Q9NNX6, residues 59-404: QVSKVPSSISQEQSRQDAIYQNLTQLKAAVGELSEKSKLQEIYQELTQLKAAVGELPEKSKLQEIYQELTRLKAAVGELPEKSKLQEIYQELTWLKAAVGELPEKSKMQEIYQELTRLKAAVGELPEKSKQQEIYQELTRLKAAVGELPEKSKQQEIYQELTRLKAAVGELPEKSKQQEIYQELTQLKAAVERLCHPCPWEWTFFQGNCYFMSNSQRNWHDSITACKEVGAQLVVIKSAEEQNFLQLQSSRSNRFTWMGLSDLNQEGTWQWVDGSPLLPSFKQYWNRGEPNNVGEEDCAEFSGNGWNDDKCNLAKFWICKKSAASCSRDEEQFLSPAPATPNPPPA
UniProt O00206, residues 24-631: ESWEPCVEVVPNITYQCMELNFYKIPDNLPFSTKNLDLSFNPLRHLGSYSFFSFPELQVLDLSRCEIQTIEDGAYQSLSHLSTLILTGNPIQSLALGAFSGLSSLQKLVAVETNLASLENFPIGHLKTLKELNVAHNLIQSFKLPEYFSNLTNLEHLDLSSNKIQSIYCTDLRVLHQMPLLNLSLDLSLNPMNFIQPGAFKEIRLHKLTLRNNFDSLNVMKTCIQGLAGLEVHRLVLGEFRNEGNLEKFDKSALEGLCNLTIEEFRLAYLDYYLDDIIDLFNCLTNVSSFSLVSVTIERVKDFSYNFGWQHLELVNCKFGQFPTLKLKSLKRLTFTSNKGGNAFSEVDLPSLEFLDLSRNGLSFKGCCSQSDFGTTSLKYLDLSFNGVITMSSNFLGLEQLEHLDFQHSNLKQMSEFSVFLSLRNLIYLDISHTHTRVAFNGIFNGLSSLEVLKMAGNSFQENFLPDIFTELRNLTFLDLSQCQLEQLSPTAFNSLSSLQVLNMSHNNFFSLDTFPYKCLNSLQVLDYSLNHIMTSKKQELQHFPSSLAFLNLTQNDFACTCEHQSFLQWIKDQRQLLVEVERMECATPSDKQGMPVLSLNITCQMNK

T1: human CD14 receptor bait protein with Fc-tag (human) (UniProt P08571)
T1 sequence: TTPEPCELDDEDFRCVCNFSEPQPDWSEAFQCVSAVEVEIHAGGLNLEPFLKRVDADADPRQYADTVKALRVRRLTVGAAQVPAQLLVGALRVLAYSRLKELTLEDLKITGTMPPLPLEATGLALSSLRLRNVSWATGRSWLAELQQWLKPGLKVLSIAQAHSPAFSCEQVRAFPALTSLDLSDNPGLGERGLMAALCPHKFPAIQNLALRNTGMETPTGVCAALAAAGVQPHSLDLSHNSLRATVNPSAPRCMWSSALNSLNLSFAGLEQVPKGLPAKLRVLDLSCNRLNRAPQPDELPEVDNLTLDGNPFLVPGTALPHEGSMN

B1: Long-form D7 protein 2 (AAEL006424), from salivary gland extract (protein, UniProt P18153 18-321)
chain: STGPFDPEEMLFTFTRCMEDNLEDGPNRLPMLAKWKEWINEPVDSPATQCFGKCVLVRTGLYDPVAQKFDASVIQEQFKAYPSLGEKSKVEAYANAVQQLPSTNNDCAAVFKAYDPVHKAHKDTSKNLFHGNKELTKGLYEKLGKDIRQKKQSYFEFCENKYYPAGSDKRQQLCKIRQYTVLDDALFKEHTDCVMKGIRYITKNNELDAEEVKRDFMQVNKDTKALEKVLNDCKSKEPSNAGEKSWHYYKCLVESSVKDDFKEAFDYREVRSQIYAFNLPKKQVYSKPAVQSQVMEIDGKQCPQ
B2: Apyrase (AAEL006347), from salivary gland extract (enzyme, UniProt P50635 25-562)
chain: TDNMPVNKDVSKLFPLTLIHINDLHARFEETNMKSNVCTQKDQCIAGIARVYQKIKDLLKEYESKNPIYLNAGDNFQGTLWYNLLRWNVTADFIKKLKPAAMTLGNHEFDHTPKGLAPYLAELNKEGIPTIVANLVMNNDPDLKSSKIPKSIKLTVGKRKIGIIGVLYDKTHEIAQTGKVTLSNAVEAVRREAAALKKDNIDIIVVLSHCSYEEDKKIAAEAGDDIDVIVGAHSHSFLYSPDSKQPHDPKDKVEGPYPTLVESKNKRKIPIVQAKSFGKYVGRLTLYFDEEGEVKNWEGYPVFIDHKVQQDPQILKDLVPWRAKVEAIGSTVVGETMIELDRDSCRDQECTLGVLYADGFADQYTNDTFRPFAIIQAGNFRNPIKVGKITNGDIIEAAPFGSTADLIRLKGADIWDVAEHSFALDDEGRTNCLQVSGLRIVIDISKPVRSRVKKIEVMDYTNPKSDKLKPLDKEAEYYIVVPSYLADGKDGFSAMKRATARRTGPLDSDVFKNYVEKIKKVDNLKLGRVIVCKGSKCT
B3: Ae. aegypti venom allergen-1 (AaVA-1, AAEL000793), from salivary gland extract (protein, UniProt A0A1S4EWW7 22-255)
chain: NYCDQSLCRRGPHVACNAPTQFGSACGQEPKFVKMDARMKNLLLKKHNELRAEIACGKHGFPQAARMPTLVWDDELAHIASFNARKCIFAHDKCRNTREFKFAGQNLAITAFAGYNFQAADRAENFTQEWFNEHKDCPKSYVDSYPMSHSGPQIGHFTQMVNDRAWKMGCSMVHYKNGRVIKYYLVCNYSMTNMIEEPIYTRGSAGSKCQTGQNPQYRGLCSPREKVRSESYRG
B4: Long-form D7 protein 1 (AAEL006417), from salivary gland extract (protein, UniProt Q0IF93 22-332)
chain: APLWDAKDPEQLRFITSRCMEDWYPKAKNPKAALQNWLGWKLEPSDDQATQCYTKCVLEKIGFYEPGEKRFKGVRVMQQWETFHKYLNADREKVHDLTSTFDFIPPLKSSSCSEVFEAFKKVNGKHSETIRAILFGKGESSKKYYQEKGVKIKQKEQSLFMHCEALNYPKGSPQRKDLCGIRKYQMGSGIVFERHMECIFKGLRYMTSKNELDVDEIARDFIVVKKKPDAMKAMMKTCKANLKEKNPGKIAVHYYKCLMNDSKVTNDFKEAFDYREVRSKDYFAALTGKLKPYSRSDVRKQVDDIDKIQCS

What was measured:
[1] = molecular target: human CD86 receptor bait protein with Fc-tag (human) (UniProt P42081); assay: affinity purification with mass spectrometry; Fc-tagged receptor baits on protein A beads (TLR4 with 6XHis on nickel beads) incubated with precleared Ae. aegypti salivary gland extract at 4°C for 1 h, washed with PBS; in a second set-up the extract met the receptor first and then the beads; bands cut from SDS-PAGE and identified by mass spectrometry; only the target purified
[2] = molecular target: human DC-SIGN receptor bait protein with Fc-tag (human) (UniProt Q9NNX6); assay: as above
[3] = molecular target: T1, human CD14 receptor bait protein with Fc-tag (human); assay: as above
[4] = molecular target: human TLR4 receptor bait protein with 6XHis-tag (human) (UniProt O00206); assay: as above
[5] = molecular target: human DC-SIGN receptor bait protein with Fc-tag (human) (UniProt Q9NNX6); assay: affinity purification with mass spectrom; only the target purified

Binder	binding [1]	binding [2]	binding [3]	binding [4]	binding [5]
B1	binds	binds			
B2	binds	binds	binds	binds	
B3					binds
B4			binds		
